Data: PubChem BioAssay AID2417 (National Center for Advancing Translational Sciences (NCATS), 2010)
Hit rate of the full screen: of about 140,000 compounds, about 4,300 (3.1%) were called active. The shares of active, inactive and inconclusive entries below differ from those in the screen.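 How the source made its calls: active means readout at or below -70, meaning at least 70% loss of cells showing the perinucleolar compartment, a nuclear body marking cancer cells; inconclusive means readout between -30 and a set limit; inactive means the rest.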

Test: High Content Assay for Compounds that inhibit the Assembly of the Perinucleolar Compartment;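 further: plate controls were DMSO wells for no effect and camptothecin positive control wells for full effect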
Details: PC3M PTB-GFP, PNC prevalence imaging, 16 h; at 10 µM; stronger effect = lower value
Outline: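 PC3M cells stably expressing PTB-GFP, 750–1000 cells/well, treated 16 h at 37 °C with compound (23 nl of library stock), in duplicate. After paraformaldehyde fixation and Hoechst stain, imaged at 20x; PNC prevalence scored by image analysis.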

Row | SMILES | activity change (PNC), negative = inhibition
1 | CCOC(=O)Cn1c(=O)n(Cc2ccco2)c(=O)c2ccc(C(=O)NC3CCCC3)cc21 | inactive: -14.6%
2 | O=S(=O)(Nc1ccc2c(c1)OCCO2)c1ccc(Br)s1 | inactive: 10.6%
3 | CC(NS(=O)(=O)c1ccc(F)cc1)C(c1cccs1)N1CCN(C)CC1 (configuration not stated) | inconclusive: -47.7%
4 | Cc1nn2c(NCCCN(C)C)c3c(nc2c1-c1ccccc1)CCC3 | inconclusive: -45.8%
5 | CC(C)CCOC(=O)C1[C@H]2C(=O)N(Cc3cccs3)C[C@]23C=C[C@H]1O3 (some centres not stated) | inconclusive: -44.3%
6 | COC(=O)C1=C(C(=O)c2ccccc2)C(c2cccs2)n2nnnc2N1 (configuration not stated) | inconclusive: -79.6%
7 | C/C(=N\Nc1ccc(C(F)(F)F)cn1)c1ccc(S(=O)(=O)NCc2ccco2)cc1 | inactive: 14.1%
8 | CC(=O)c1ccc(NC(=O)CSc2nnc(Cc3cccn3C)n2-c2ccc(F)cc2)cc1 | inconclusive: -39.3%
9 | Cc1cccc(C)c1NC(=O)COc1ccc2c(C)c(Cc3ccccc3)c(=O)oc2c1 | inconclusive: -31.3%
10 | O=C(CC1c2ccccc2Oc2ccccc21)NCc1ccco1 | inconclusive: -46.2%
11 | CC(N1CCOC1=O)S(=O)(=O)c1ccccc1 (configuration not stated) | active: -110%
12 | CCOc1ccc(Cn2c(C)nc([N+](=O)[O-])c2SCC(O)CCl)cc1[N+](=O)[O-] (configuration not stated) | inconclusive: -45.5%
13 | CN(C1CCCCC1)S(=O)(=O)c1ccc2c(c1)c(=O)c(C(=O)NCCCN1CCCC1)cn2C | inconclusive: -43.9%
14 | CCOC(=O)N1CCC(n2c(SCC(=O)Nc3ccccc3OC)nc3ccccc3c2=O)CC1 | inconclusive: -46.9%
15 | O=[N+]([O-])c1cc2c(cc1C=Nc1ccccc1)OCO2 | inactive: -0.776%
16 | CCc1ccc(-c2nc(NC(=O)c3ccc(OCC(=O)Nc4ccc(F)cc4)c(OC)c3)sc2C)cc1 | inconclusive: -53%
17 | COc1ccccc1/C=N/NC(=O)CC(=O)Nc1ccc(Cl)c(Cl)c1 | inactive: 12.2%
18 | Cc1ccc2c(CC(=O)OC3CCOC3=O)coc2c1 (configuration not stated) | inconclusive: -42.2%
19 | O=S(=O)(Nc1ncnc2sc3c(c12)CCC3)c1ccc(Cl)s1 | inconclusive: -42.8%

Row | SMILES | activity change (PNC), negative = inhibition
20 | COc1ccc(C(=O)Nc2c(N)nc(SCC(=O)N3CCC(C)CC3)[nH]c2=O)cc1OC | inconclusive: -45.3%
21 | O=C(COC(=O)c1cccc(Cl)c1Cl)NCCN1C(=O)CSC1=O | inactive: -20.9%
22 | Cc1cc(NC(=O)C2C3C(=O)N(CC4CCCO4)C(C(=O)NCc4ccccc4)C34C=CC2(C)O4)no1 (configuration not stated) | inconclusive: -34.8%
23 | CCOc1ccc(NC(=O)C(c2ccccn2)N(C(=O)CCl)c2ccc(OCC)cc2)cc1 (configuration not stated) | inactive: -17.8%
24 | Cc1ccc(/C=N/n2c(C)nnc2C)s1 | inactive: -24.7%
25 | CCOc1cc(N2CCOCC2)c(OCC)cc1NC(=O)CN1CCc2ccccc2C1 | inconclusive: -63%
26 | CCn1c(=O)cc(SCC(=O)N2CCN(C(=O)c3ccco3)CC2)c2ccccc21 | inconclusive: -67.5%
27 | Cc1ccc(NC(=O)CSc2nnc3n2CCCCC3)cc1 | inconclusive: -56.2%
28 | Cc1ccc(CN2CCN(CC3CC4C=CC3C4)CC2)cc1 (configuration not stated) | inconclusive: -38.1%
29 | COc1ccc(-c2nn3c(-c4ccccc4)nnc3s2)cc1OC | inconclusive: -47.8%
30 | Cc1csc(NC(=O)c2cc3c(s2)-c2ccccc2OC3)n1 | inactive: 41.1%
31 | Cc1cc2cc(C(c3nnnn3Cc3ccco3)N3CCc4ccccc4C3)c(=O)[nH]c2cc1C (configuration not stated) | inactive: 11.5%
32 | COc1ccc(CCn2c(-c3ccco3)nc3nc4ccccc4nc32)cc1 | inconclusive: -39.6%
33 | Cc1cc(C)n2c(SCc3cccs3)nnc2n1 | inconclusive: -40%
34 | CCOC(=O)N1CCC(=NNC(=O)c2ccccc2F)CC1 | inconclusive: -49.8%
35 | CCN1CCN(c2nc(-c3cccs3)nc3ccccc23)CC1 | inconclusive: -61.6%
36 | Cc1ccc(SCc2ccc(C(=O)Nc3ccccc3Br)cc2)cc1 | inconclusive: -37.6%
37 | Cc1c(C(=O)c2ccc(Cl)c(Cl)c2)cnc2cc3c(cc12)OCO3 | inconclusive: -55.1%
38 | CCOC(=O)CSc1nc(C)cc(=O)[nH]1 | inactive: -9.26%

Row | SMILES | activity change (PNC), negative = inhibition
39 | Cc1ccsc1C(=O)OCC(=O)Nc1cccc(S(=O)(=O)N2CCOCC2)c1 | inactive: -21.7%
40 | Oc1c(CN2CCOCC2)cc(COCc2ccccc2)c2cccnc12 | inconclusive: -35.8%
41 | COC(=O)NC(=S)Nc1ccc(Oc2ccc(Cl)cc2)c(Cl)c1 | inconclusive: -51.9%
42 | COc1cccc(CNC(=O)Cc2c(C(=O)O)[nH]c3ccccc23)c1 | inconclusive: -41.9%
43 | Cc1ccccc1Sc1c(C#N)c(-c2ccccc2)nn1C | inactive: -9.99%
44 | COc1ccc(NS(=O)(=O)c2ccc(S(=O)(=O)N3CCCC3)cc2)cc1 | inactive: 19.2%
45 | CCNC(=O)c1ccc(C2SCC(=O)N2Cc2ccco2)cc1 (configuration not stated) | inactive: 84.6%
46 | CC(=O)NC(C(=O)NCC(N)=O)C(C)C (configuration not stated) | inconclusive: -49.5%
47 | CN(C)/C=C(\C=N\OCc1ccc(Cl)cc1Cl)C(=O)Nc1ccc(Cl)c(Cl)c1 | inactive: 10.2%
48 | O=C(CCSCc1cccc(Cl)c1)NCCc1ccc(Cl)cc1 | inconclusive: -31.3%
49 | CCc1ccc(OCC(=O)NC(C)(C)C)cc1 | inconclusive: -41%
50 | O=C(COc1ncnc2scc(-c3ccc(F)cc3)c12)NCc1ccco1 | inactive: -28.6%
51 | CCOC(=O)C1CCCN(C(=O)c2cc3c(C)nc4ccccc4c3o2)C1 (configuration not stated) | inconclusive: -44.3%
52 | Cc1ccc2cc(C=O)c(N(C)C)nc2c1 | inconclusive: -39.3%
53 | CCS(=O)(=O)N1CCC(C(=O)NCCC2=CCCCC2)CC1 | inconclusive: -44%
54 | COc1cc(OC)cc(C(=O)NCC2CCCO2)c1 (configuration not stated) | inactive: -4.43%
55 | CCC(C)C(=O)N1c2ccccc2C(=C2SC(C(=O)OC)=C(C(=O)OC)S2)C(=S)C1(C)C (configuration not stated) | inactive: -25.6%
56 | C/C(N)=C(/C#N)C(=O)CSc1nc2cc(Cl)ccc2s1 | inconclusive: -63.2%
57 | COc1ccc(C)cc1NC(=O)c1cc2ccccc2o1 | inconclusive: -73.3%
